{"sequences": {"note": "Chains of the proteins cited; added tags and fusions are not shown.", "UniProt Q06187": "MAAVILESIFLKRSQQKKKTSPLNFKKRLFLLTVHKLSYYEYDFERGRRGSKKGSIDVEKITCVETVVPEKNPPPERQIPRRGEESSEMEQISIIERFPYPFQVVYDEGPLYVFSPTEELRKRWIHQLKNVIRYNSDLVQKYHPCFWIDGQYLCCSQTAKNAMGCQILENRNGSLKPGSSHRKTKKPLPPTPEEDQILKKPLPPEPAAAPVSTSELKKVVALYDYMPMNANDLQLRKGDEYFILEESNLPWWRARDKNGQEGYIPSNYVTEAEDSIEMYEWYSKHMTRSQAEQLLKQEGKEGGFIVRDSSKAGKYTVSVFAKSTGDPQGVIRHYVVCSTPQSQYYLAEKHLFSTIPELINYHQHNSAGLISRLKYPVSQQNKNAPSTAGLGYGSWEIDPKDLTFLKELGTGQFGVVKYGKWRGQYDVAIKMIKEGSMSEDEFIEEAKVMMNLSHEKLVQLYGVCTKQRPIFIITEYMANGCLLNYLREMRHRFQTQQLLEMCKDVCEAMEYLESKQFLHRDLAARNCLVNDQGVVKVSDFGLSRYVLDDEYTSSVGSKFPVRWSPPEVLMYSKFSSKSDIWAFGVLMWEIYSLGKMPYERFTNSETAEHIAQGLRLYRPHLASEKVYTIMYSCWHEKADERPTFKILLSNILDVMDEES"}, "source": "paper PMC10132808", "molecular_target": "Full-length Btk (no His tag) (human) (UniProt Q06187)", "experiment": "TIRF microscopy of recruitment to supported-lipid bilayers; Btk, Grb2 and SOS-PRR-AlexaFluor647, or Grb2 and SOS-PRR-AlexaFluor647, added to a PIP3-containing membrane; AlexaFluor647 intensity at the membrane; both purified", "note": "Results are given in words; binding and its absence hold for the method and conditions named."}
{"substance": "SOS-PRR labeled with Alexa Fluor 647 (from UniProt Q07889 1051-1333) (domain or fragment)", "values": [{"measurement": "binding", "value": "no binding"}]}
